# Laboratory results from US8461328B2, “Tricyclic heterocyclic compounds, compositions and methods of use thereof” (Genentech, Inc., priority 2010, dated 2013).
# Sequences of proteins named here, by UniProt entry; tags and fusion partners are left off. Residues count along the entry.
# UniProt P23458, 852-1154: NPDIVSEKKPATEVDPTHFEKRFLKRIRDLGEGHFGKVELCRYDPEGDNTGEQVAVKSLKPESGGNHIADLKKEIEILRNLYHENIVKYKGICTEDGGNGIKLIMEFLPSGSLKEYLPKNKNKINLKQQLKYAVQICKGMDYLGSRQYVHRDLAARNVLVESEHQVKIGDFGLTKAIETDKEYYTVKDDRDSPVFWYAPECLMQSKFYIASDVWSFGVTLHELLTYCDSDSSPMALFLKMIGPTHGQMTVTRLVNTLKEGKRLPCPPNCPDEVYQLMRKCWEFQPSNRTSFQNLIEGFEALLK
# Where a name gives a salt, the structure may show the parent alone. Some entries share one result that the patent states for a list of compounds.
# Target: T1, human JAK1 kinase domain (Homo sapiens, UniProt P23458)
# T1 construct: made in house; host or cells: SF9 insect cells (baculovirus)
# Assay: JAK1 inhibition assay (Example B), Caliper LabChip peptide phosphorylation
# Assay type: biochemical
# Details: 1.5 nM JAK1, 25 μM ATP, Morrison tight binding model; read-out: Ki in a JAK1 kinase activity assay (Example B)
row,SMILES,Ki [µM]
1,"COC1CN(CCC#N)CCC1n1c(C)nc2cnc3[nH]ccc3c21 (racemic) [Example 538, 3-[3-Methoxy-4-(2-methyl-6H-1,3,5,6-tetraaza-as-indacen-1-yl)-piperidin-1-yl]-propionitrile]",< 0.5
2,"COCCN1CCC(n2c(C(C)O)nc3cnc4[nH]ccc4c32)CC1 (racemic) [Example 539, 1-{1-[1-(2-Methoxy-ethyl)-piperidin-4-yl]-1,6-dihydro-1,3,5,6-tetraaza-as-indacen-2-yl}-ethanol]",< 0.5
3,"Cc1nc2cnc3[nH]ccc3c2n1[C@H]1CC[C@H](N2CCC(O)C2)CC1 (mixture of isomers) [Example 597, Racemic trans 1-[4-(2-Methyl-6H-1,2,3,5,6-tetraaza-as-indacen-1-yl)-cyclohexyl]-pyrrolidin-3-ol]",< 0.5
4,"COCCNC1CCC(n2nnc3cnc4[nH]ccc4c32)C1 (racemic) [Example 618, Racemic trans (2-methoxy-ethyl)-[3-(6H-1,2,3,5,6-pentaaza-as-indacen-1-yl)-cyclopentyl]-amine hydrochloride]",< 0.5
5,"O=C(NC1CCC(n2nnc3cnc4[nH]ccc4c32)C1)OCC(F)(F)F (racemic) [Example 620, Racemic trans [3-(6H-1,2,3,5,6-Pentaaza-as-indacen-1-yl)-cyclopentyl]-carbamic acid 2,2,2-trifluoro-ethyl ester]",< 0.5
6,"COC(=O)NC1CCC(n2nnc3cnc4[nH]ccc4c32)C1 (racemic) [Example 621, Racemic trans [3-(6H-1,2,3,5,6-Pentaaza-as-indacen-1-yl)-cyclopentyl]-carbamic acid methyl ester]",< 0.5
7,"CN(CC(F)(F)F)C(=O)NC1CCC(n2nnc3cnc4[nH]ccc4c32)C1 (racemic) [Example 622, Racemic trans 1-Methyl-3-[3-(6H-1,2,3,5,6-pentaaza-as-indacen-1-yl)-cyclopentyl]-1-(2,2,2-trifluoro-ethyl)-urea]",< 0.5
8,"Cc1nc2cnc3[nH]ccc3c2n1C1CCC(NCC(F)(F)F)C1 (racemic) [Example 626, Racemic trans [3-(2-Methyl-6H-1,2,3,5,6-tetraaza-as-indacen-1-yl)-cyclopentyl]-(2,2,2-trifluoro-ethyl)-amine]",< 0.5
9,"Cc1nc2cnc3[nH]ccc3c2n1C1CCC(NCCC#N)C1 (racemic) [Example 627, Racemic trans 3-[3-(2-methyl-6H-1,2,3,5,6-tetraaza-as-indacen-1-yl)-cyclopentylamino]-propionitrile]",< 0.5
10,"COCCNC1CCC(n2c(C)nc3cnc4[nH]ccc4c32)C1 (racemic) [Example 628, Racemic trans (2-methoxy-ethyl)-[3-(2-methyl-6H-1,2,3,5,6-tetraaza-as-indacen-1-yl)-cyclopentyl]-amine]",< 0.5
11,"N#CCC(=O)NC1CCC(n2cnc3cnc4[nH]ccc4c32)C1 (racemic) [Example 629, Racemic trans 2-cyano-N-[3-(6H-1,2,3,5,6-tetraaza-as-indacen-1-yl)-cyclopentyl]-acetamide]",< 0.5
12,"CS(=O)(=O)NC1CCC(n2cnc3cnc4[nH]ccc4c32)C1 (racemic) [Example 630, Racemic trans N-[3-(6H-1,2,3,5,6-tetraaza-as-indacen-1-yl)-cyclopentyl]-methanesulfonamide]",< 0.5
13,"C[C@@H](O)c1nc2cnc3[nH]ccc3c2n1C1CCCC(C#N)C1 (mixture of isomers) [Example 648, Racemic cis 3-[2-((R)-1-Hydroxy-ethyl)-6H-1,2,3,5,6-tetraaza-as-indacen-1-yl]-cyclohexanecarbonitrile]",< 0.5
14,"CC1(n2cnc3cnc4[nH]ccc4c32)CCCN(C(=O)CC#N)C1 (racemic) [Example 706, 3-[3-Methyl-3-(6H-1,2,3,5,6-tetraaza-as-indacen-1-yl)-piperidin-1-yl]-3-oxo-propionitrile]",< 0.5
15,"c1nc2c([nH]1)CCC(n1cnc3cnc4[nH]ccc4c31)C2 (racemic) [Example 707, 1-(4,5,6,7-Tetrahydro-3H-benzoimidazol-5-yl)-1,6-dihydro-1,2,3,5,6-tetraaza-as-indacene]",< 0.5
16,"FC(F)(F)CNC1CCC(n2cnc3cnc4[nH]ccc4c32)C1 (racemic) [Example 717, [3-(6H-1,3,5,6-tetraaza-as-indacen-1-yl)-cyclopentyl]-(2,2,2-trifluoro-ethyl)-amine]",< 0.5
17,"FC(F)(F)CNC1CCC(n2nnc3cnc4[nH]ccc4c32)C1 (racemic) [Example 718, [3-(6H-1,2,3,5,6-Pentaaza-as-indacen-1-yl)-cyclopentyl]-(2,2,2-trifluoro-ethyl)-amine]",< 0.5
18,"Cc1nc2cnc3[nH]ccc3c2n1C1CCC(NS(C)(=O)=O)C1 (racemic) [Example 721, N-[3-(2-methyl-6H-1,3,5,6-tetraaza-as-indacen-1-yl)-cyclopentyl]-methanesulfonamide]",< 0.5
19,"COCCNC1CCC(n2cnc3cnc4[nH]ccc4c32)C1 (racemic) [Example 726, (2-Methoxy-ethyl)-[3-(6H-1,3,5,6-tetraaza-as-indacen-1-yl)-cyclopentyl]-amine]",< 0.5

row,SMILES,Ki [µM]
1,"Cc1nc2cnc3[nH]ccc3c2n1C1CCC(NC(=O)CC#N)C1 (racemic) [Example 728, 2-Cyano-N-[3-(2-methyl-6H-1,3,5,6-tetraaza-as-indacen-1-yl)-cyclopentyl]-acetamide]",< 0.5
2,"O=C(CC(F)(F)F)NC1CCC(n2cnc3cnc4[nH]ccc4c32)C1 (racemic) [Example 729, 3,3,3-Trifluoro-N-[3-(6H-1,3,5,6-tetraaza-as-indacen-1-yl)-cyclopentyl]-propionamide]",< 0.5
3,"Cc1nc2cnc3[nH]ccc3c2n1C1CCC(NC(=O)CC(F)(F)F)C1 (racemic) [Example 730, 3,3,3-Trifluoro-N-[3-(2-methyl-6H-1,3,5,6-tetraaza-as-indacen-1-yl)-cyclopentyl]-propionamide]",< 0.5
4,"O=C(CCC(F)(F)F)NC1CCC(n2cnc3cnc4[nH]ccc4c32)C1 (racemic) [Example 732, 4,4,4-Trifluoro-N-[3-(6H-1,3,5,6-tetraaza-as-indacen-1-yl)-cyclopentyl]-butyramide]",< 0.5
5,"Cc1nc2cnc3[nH]ccc3c2n1C1CCC(NC(=O)N(C)CC(F)(F)F)C1 (racemic) [Example 736, 1-Methyl-3-[3-(2-methyl-6H-1,3,5,6-tetraaza-as-indacen-1-yl)-cyclopentyl]-1-(2,2,2-trifluoro-ethyl)-urea]",< 0.5
6,"CN(CC(F)(F)F)C(=O)NC1CCC(n2cnc3cnc4[nH]ccc4c32)C1 (racemic) [Example 737, 1-Methyl-3-[3-(6H-1,3,5,6-tetraaza-as-indacen-1-yl)-cyclopentyl]-1-(2,2,2-trifluoro-ethyl)-urea]",< 0.5
7,"COCCN(C)C(=O)NC1CCC(n2c(C)nc3cnc4[nH]ccc4c32)C1 (racemic) [Example 738, 1-(2-Methoxy-ethyl)-1-methyl-3-[3-(2-methyl-6H-1,3,5,6-tetraaza-as-indacen-1-yl)-cyclopentyl]-urea]",< 0.5
8,"COCCN(C)C(=O)NC1CCC(n2cnc3cnc4[nH]ccc4c32)C1 (racemic) [Example 739, 1-(2-Methoxy-ethyl)-1-methyl-3-[3-(6H-1,3,5,6-tetraaza-as-indacen-1-yl)-cyclopentyl]-urea]",< 0.5
9,"OCCOc1nc2cnc3[nH]ccc3c2n1C1CCCOC1 (racemic) [Example 780, 2-[1-(Tetrahydro-pyran-3-yl)-1,6-dihydro-1,3,5,6-tetraaza-as-indacen-2-yloxy]-ethanol]",< 0.5
10,"CCN1CCC(n2c(CCNS(C)(=O)=O)nc3cnc4[nH]ccc4c32)C(F)(F)C1 (racemic) [Example 804, N-{2-[1-(1-Ethyl-3,3-difluoro-piperidin-4-yl)-1,6-dihydro-1,3,5,6-tetraaza-as-indacen-2-yl]-ethyl}-methanesulfonamide]",< 0.5
11,"OCC(O)c1nc2cnc3[nH]ccc3c2n1C1CCCCC1 (racemic) [Example 853, 1-(1-Cyclohexyl-1,6-dihydro-1,3,5,6-tetraaza-as-indacen-2-yl)-ethane-1,2-diol]",< 0.5
12,"COCC(=O)NCCc1nc2cnc3[nH]ccc3c2n1C1CCCOC1 (racemic) [Example 860, 2-Methoxy-N-{2-[1-(tetrahydro-pyran-3-yl)-1,6-dihydro-1,3,5,6-tetraaza-as-indacen-2-yl]-ethyl}-acetamide]",< 0.5
13,"O=C(Cc1nc2cnc3[nH]ccc3c2n1C1CC2CCC1C2)N1CCC(O)CC1 (racemic) [Example 869, 2-(1-Bicyclo[2.2.1]hept-2-yl-1,6-dihydro-1,3,5,6-tetraaza-as-indacen-2-yl)-1-(4-hydroxy-piperidin-1-yl)-ethanone]",< 0.5
14,"OC(c1nc2cnc3[nH]ccc3c2n1C1CCCCC1)C1CCOCC1 (racemic) [Example 875, (1-Cyclohexyl-1,6-dihydro-1,3,5,6-tetraaza-as-indacen-2-yl)-(tetrahydro-pyran-4-yl)-methanol]",< 0.5
15,"OC(c1nc2cnc3[nH]ccc3c2n1C1CCCCC1)C1CC1 (racemic) [Example 940, (1-Cyclohexyl-1,6-dihydro-1,3,5,6-tetraaza-as-indacen-2-yl)-cyclopropyl-methanol]",< 0.5
16,"CCN1CCC(n2c(CO)nc3cnc4[nH]ccc4c32)C(F)(F)C1 (racemic) [Example 941, [1-(1-Ethyl-3,3-difluoro-piperidin-4-yl)-1,6-dihydro-1,3,5,6-tetraaza-as-indacen-2-yl]-methanol]",< 0.5
17,"O=C(O)C1CC1C(O)c1nc2cnc3[nH]ccc3c2n1C1CCCCC1 (racemic) [Example 942, 2-[(1-Cyclohexyl-1,6-dihydro-1,3,5,6-tetraaza-as-indacen-2-yl)-hydroxy-methyl]-cyclopropanecarboxylic acid]",< 0.5
18,"CS(=O)(=O)NCc1nc2cnc3[nH]ccc3c2n1C1CCNCC1(F)F (racemic) [Example 945, N-[1-(3,3-Difluoro-piperidin-4-yl)-1,6-dihydro-1,3,5,6-tetraaza-as-indacen-2-ylmethyl]-methanesulfonamide]",< 0.5
